Paper PMC10163288
This is one part of the list.

B1: il2ra_site1_2b5i_sap_16_mot_HHH_b2_07442_af2_000000069_0001_1_16_H_._HHH_b1_00444_0001_0000100001_0000001_0_0001_af2pred_dldesign_0_af2pred (protein)
chain: SSSSEDLRELTRELIAEARRLKDTDPLLAKKLARLALRLARKSGDEELVAEARAVLAELESSSSS
B2: il2ra_site2_2erj_normal_mot_6ec3e94b46d95805cdcdc10c0c108f03_0001_af2_000000040_0001_36_50_H_._HHH_b1_06242_af2_0001_0000300012_0000001_0 (protein)
chain: SSSSDELRELYELANEILHLLARGDPEQARELIEEARELAEELQSDNAKELLESLERLARSSSSS
B3: il2ra_site1_1z92_sap_28_mot_HHH_b1_01467_000000208_0001_22_39_H_._HHH_b1_01192_af2_0001_0000200006_0000001_0_0001_af2pred_0001_af2pred_1 (protein)
chain: DLEERIEELIEQIPNPQVRRLLELVLEELKEDERVALRDVRRLLEFFGDPIVEEIVELIEELVRR
B4: il2ra_site1_2b5i_normal_mot_HHH_b1_06833_000000178_0001_1_19_H_._HHH_b1_07373_af2_0001_0000100007_0000001_0 (protein)
chain: SSSSTEEKELVRFVLRLITRLRLSEEQARELAQLAAELLFEGVDEEEIEEILRKLAEELGSSSSS
B5: il2ra_site1_3nfp_sap_15_mot_5dea99290cf7e133ebc5b763b21a7a39_0001_000000141_0001_34_49_H_._f43df4b072a677831423678cc65c5d2a_0001_0001_0000500017_0000001_0_0001 (protein)
chain: SSSSSRAEELTEMAEQAAKMLGDEELERLLRELLEEAKEKGDKRVWQELWEVIFEVIQRSASSSS
B6: il2ra_site2_3nfp_normal_mot_aceb0566c4959a1d3b0eec5718b8dc8a_0001_af2_000000069_0001_34_48_H_._HHH_b2_03402_0001_0000100008_0000001_0_af2pred_0001_af2pred_swapp … (protein)
chain: SSSSDEEERRARFIFRYAEWLAEEQNDEETLERLRELAEEYEEKGDPRVLEEVLELARELSSSSS
B7: il2ra_site2_3nfp_normal_mot_HHH_b1_00660_af2_000000090_0001_40_57_H_._HHH_b2_01829_0001_0000200031_0000001_0_af2pred_0001_af2pred (protein)
chain: SSSSSDEEREEVEELLEEAKHIEDDEERERLLRRAALIAVEANDFELFALVTLVMEELENSSSSS
B8: il2ra_site1_1z92_sap_19_mot_HHH_b2_06948_000000036_0001_19_35_H_._0c3f1ad226cb76d7bcdd6a902dc11329_0001_1_af2_0001_0000100016_0000001_0_0001_af2pred_0001_af2pre … (protein)
chain: SVEEFLRELAKRNPELFERFVERSLKAEGVPPEEIEEILEEIRELLKRDPEQAVELALELLHRAS
B9: il2ra_site1_3nfp_normal_mot_HHH_b1_03420_af2_000000029_0001_41_57_H_._97e99672e168623ff83a69b38e8865de_0001_1_0001_0000300022_0000001_0_af2pred_0001_af2pred_1 (protein)
chain: SSEELLKEMVEFAVRRNNPKLLRRILEELERWLGDPEEAERVLKELIEEVLGDPEEAERLVEEAK
B10: il2ra_site2_3nfp_normal_mot_HHH_b1_07556_000000077_0001_42_55_H_._738ccc93aada9afe30a0d8950425dc90_0001_1_0001_0000100012_0000001_0_af2pred_0001_af2pred (protein)
chain: DVERELSRLARERNDPAVLRAKAIIRILKLRGVPPEEIEEIVEEIIKKAGLPPEIEELLREAVRE
B11: il2ra_site1_2b5i_normal_mot_HHH_b2_00256_000000050_0001_19_35_H_._HHH_b1_06795_0001_0000200025_0000001_0_af2pred_0001_af2pred (protein)
chain: SSSSSEEDRELVEFIFRLFAEFGLSSEQSKELAQLAAELLDKGVSVEEIKELLRELAEELSSSSS
B12: il2ra_site1_1z92_sap_20_mot_3afbd42359c492d9a5ba12d7e5b15de5_0001_000000167_0001_17_33_H_._HHH_b2_04511_0001_0000200005_0000001_0_0001 (protein)
chain: SSSSSDLEEFAQEVVERLVEELGLSEEDKEALERDAEMLVELGFSEKSLERALKWFAERNSSSSS
B13: il2ra_site2_3nfp_sap_16_mot_HHH_b1_08097_000000036_0001_22_39_H_._HHH_b1_03506_0001_0000100005_0000001_0_0001 (protein)
chain: SSSSSDEEERRVEELLEEAKHIEDEEERKEVLAEASQLAWELRNPELFFLVAEVLFKLEQSSSSS
B14: il2ra_site2_2erj_normal_mot_HHH_b1_03702_000000266_0001_38_56_H_._093f7d884af8442902c544b9c13aca27_0001_0001_0000200002_0000001_0_af2pred_0001_af2pred (protein)
chain: SVEEVVREAEERGELPPRVLRFAKAAIRMAKFAGSPPEFVAEAVEHAARRLGDEDLEELAEKLKK
B15: il2ra_site1_1z92_sap_13_mot_HHH_b2_08214_af2_000000088_0001_37_50_H_._HHH_b1_00873_0001_0000100005_0000001_0_0001_af2pred_0001_af2pred_1 (protein)
chain: SEEEEIEEKLRELGVPPELIKAIRRAFRHARENGIPPEQVRRALASALRFDDDPAAELALEALER
B16: il2ra_site1_1z92_sap_25_mot_HHH_b2_06555_af2_000000230_0001_23_40_H_._HHH_b1_06444_0001_0000100006_0000001_0_0001_af2pred_0001_af2pred_1 (protein)
chain: TSELIYELLELIARGEVPPEEIREIIEEIAERAGVPPEDVVRLLKALARQINNPEVERLLEEVLR
B17: il2ra_site1_2b5i_sap_14_mot_706564c13a40034bb3de594a58ae2d05_0001_af2_000000196_0001_37_51_H_._HEEHE_0610_0001_0000500035_0000001_0_0001_af2pred_0001_af2pred_1 (protein)
chain: SSSSDEVFHEVYELFSRASRLASNGNPEEARELLKEALEIAKESDNEKIREELEHMLKFISSSSS
B18: il2ra_site1_3nfp_normal_mot_971283e6576f4d06e1f80da1570dade3_0001_1_af2_000000065_0001_35_48_H_._8cb69178cb18ca82f70eade9eeca9cee_0001_0001_0000300035_0000001_0 (protein)
chain: DEELEEEVREVLGVPPEAAEAFVRAAKEDAGTPERAEKIVRLQLRYAKRDPRVRENLRLQAEALQ
B19: il2ra_site1_3nfp_normal_mot_HHH_b1_03420_af2_000000029_0001_41_57_H_._HHH_b2_06571_af2_0001_0000200007_0000001_0 (protein)
chain: SSSSDELQRAIELDKELLELRKRGDEEHAREVLEELKELAEEIGDELARRLVEEYEKFLRSSSSS

Molecular target: il2ra, P01589
Assay: yeast display titration

Apparent Kd, inactive:
B1 no binding seen
B2 no binding seen
B3 no binding seen
B4 no binding seen
B5 no binding seen
B6 no binding seen
B7 no binding seen
B8 no binding seen
B9 no binding seen
B10 no binding seen
B11 no binding seen
B12 no binding seen
B13 > 1150 nM
B14 no binding seen
B15 no binding seen
B16 no binding seen
B17 no binding seen
B18 > 770 nM
B19 no binding seen

5 successive entries already listed:
Apparent Kd, inactive:
B3 no binding seen
B4 no binding seen
B5 no binding seen
B6 no binding seen
B7 no binding seen
